Data as given in PubChem BioAssay AID504791 (Drosophila RNAi Screening Center, 2011).
Aim: 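Genes of the fly required for silencing by miRNA, siRNA or endo-siRNA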 (primary screen). Cells: Drosophila S2-derived reporter cells. Reagents: long dsRNA against Drosophila genes, about 150-250 ng dsRNA per well (siRNA assay); about 80-120 ng (miRNA assay). Duration: about 5 days (siRNA assay); about 4 days (miRNA assay). Treatment: copper sulfate induction of reporters: 25 µM (siRNA assay); 200 mM stated (miRNA assay), 1-2 days before reading. Detection: 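Per-well ratio of Renilla over firefly light, expressed relative to that plate's average ratio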. Active means: 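a well was a first-pass pick when its plate-scaled ratio rose above 1.5 (siRNA assay) or 1.6 (miRNA assay), or dropped below 0.6; a gene counted only if two separate dsRNAs agreed on retest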.
In all, the deposit lists about 23,000 reagents; this is an unselected part of those that have a named target and a result. Over the whole deposit, 199 (0.86%) got an active call. 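Plate-scaled ratios behind the calls are not deposited; printed light signals are raw; many rows marked increased or decreased are still called inactive.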 Reagents against one gene are numbered here. Names joined by + are all predicted targets of the reagent. The record does not give: the direction of the score.

For CG4229, the values are stable assay Renilla, run 1 (luminescence) = 10150; stable assay firefly, run 1 (luminescence) = 5.58e5; inactive.
Knock-down of Cka #1 came out at: stable assay Renilla, run 1 (luminescence) = 8257; stable assay firefly, run 1 (luminescence) = 4.99e5; inactive.
Cka #2 gave stable siRNA reporter change reporter ratio raised past the hit cutoff; stable assay Renilla, run 1 (luminescence) = 5276; stable assay firefly, run 1 (luminescence) = 3.11e5; active.
After knock-down of PGRP-SA, the screen gave stable assay Renilla, run 1 (luminescence) = 5343; stable assay firefly, run 1 (luminescence) = 4.39e5; inactive.
With knock-down of Tango1, the record shows stable assay Renilla, run 1 (luminescence) = 13816; stable assay firefly, run 1 (luminescence) = 8.00e5; inactive.
For Arfip the deposit lists stable assay Renilla, run 1 (luminescence) = 8098; stable assay firefly, run 1 (luminescence) = 5.69e5; inactive.
Knock-down of Slu7 came out at: stable siRNA reporter change reporter ratio raised past the hit cutoff; stable assay Renilla, run 1 (luminescence) = 8190; stable assay firefly, run 1 (luminescence) = 3.18e5; inactive.
After knock-down of Tpr2, the record shows stable assay Renilla, run 1 (luminescence) = 15690; stable assay firefly, run 1 (luminescence) = 2.01e6; inactive.
After knock-down of rept, the record shows stable assay Renilla, run 1 (luminescence) = 5664; stable assay firefly, run 1 (luminescence) = 4.13e5; inactive.
With knock-down of Ir75b the results were stable assay Renilla, run 1 (luminescence) = 8509; stable assay firefly, run 1 (luminescence) = 3.87e5; inactive.
CG17625 gave stable assay Renilla, run 1 (luminescence) = 7018; stable assay firefly, run 1 (luminescence) = 3.27e5; inactive.
Depletion of CG3163 came out at: stable assay Renilla, run 1 (luminescence) = 10671; stable assay firefly, run 1 (luminescence) = 1.87e6; inactive.
Vps51 gave stable assay Renilla, run 1 (luminescence) = 9921; stable assay firefly, run 1 (luminescence) = 2.70e5; inactive.
beat-IV #1 showed stable assay Renilla, run 1 (luminescence) = 9146; stable assay firefly, run 1 (luminescence) = 4.57e5; inactive.
Against beat-IV #2, the entry reads stable assay Renilla, run 1 (luminescence) = 7983; stable assay firefly, run 1 (luminescence) = 4.86e5; inactive.

An excerpt of the results above:
Cka #2 | stable siRNA reporter change = reporter ratio raised past the hit cutoff; stable assay Renilla, run 1 (luminescence) = 5276; stable assay firefly, run 1 (luminescence) = 3.11e5; Call = active
PGRP-SA | stable assay Renilla, run 1 (luminescence) = 5343; stable assay firefly, run 1 (luminescence) = 4.39e5; Call = inactive
Tango1 | stable assay Renilla, run 1 (luminescence) = 13816; stable assay firefly, run 1 (luminescence) = 8.00e5; Call = inactive

Continued.
For CG30492 (retired record) + M7BP #1 the deposit lists stable assay Renilla, run 1 (luminescence) = 5523; stable assay firefly, run 1 (luminescence) = 4.27e5; inactive.
Silencing of CG30492 (retired record) + M7BP #2 resulted in: stable assay Renilla, run 1 (luminescence) = 5427; stable assay firefly, run 1 (luminescence) = 4.74e5; inactive.
Knock-down of CG30492 (retired record) + M7BP #3 resulted in: stable assay Renilla, run 1 (luminescence) = 6812; stable assay firefly, run 1 (luminescence) = 5.49e5; inactive.
Silencing of CG30492 (retired record) + M7BP #4 resulted in: stable assay Renilla, run 1 (luminescence) = 5908; stable assay firefly, run 1 (luminescence) = 3.03e5; inactive.
CG30492 (retired record) + M7BP #5 scored stable assay Renilla, run 1 (luminescence) = 6500; stable assay firefly, run 1 (luminescence) = 3.44e5; inactive.
For CAH7, the values are stable assay Renilla, run 1 (luminescence) = 6046; stable assay firefly, run 1 (luminescence) = 4.08e5; inactive.
CG30395 gave stable assay Renilla, run 1 (luminescence) = 6552; stable assay firefly, run 1 (luminescence) = 5.68e5; inactive.
With knock-down of OSCP1, the record shows stable assay Renilla, run 1 (luminescence) = 6475; stable assay firefly, run 1 (luminescence) = 5.09e5; inactive.
Against Rad1 + Sws1, the values are stable assay Renilla, run 1 (luminescence) = 7418; stable assay firefly, run 1 (luminescence) = 4.60e5; inactive.
asf1 gave stable assay Renilla, run 1 (luminescence) = 7802; stable assay firefly, run 1 (luminescence) = 4.60e5; inactive.
Against lectin-46Cb, the entry reads stable assay Renilla, run 1 (luminescence) = 5679; stable assay firefly, run 1 (luminescence) = 4.24e5; inactive.
Against RhoGEF64C #1 the deposit lists stable assay Renilla, run 1 (luminescence) = 7574; stable assay firefly, run 1 (luminescence) = 2.99e5; inactive.
Knock-down of RhoGEF64C #2 resulted in: stable assay Renilla, run 1 (luminescence) = 5648; stable assay firefly, run 1 (luminescence) = 3.32e5; inactive.
